Test [1] has as its target T1, HOOK3 (endogenous) (human (endogenous in 293T)) (UniProt Q86VS8).
T1 sequence: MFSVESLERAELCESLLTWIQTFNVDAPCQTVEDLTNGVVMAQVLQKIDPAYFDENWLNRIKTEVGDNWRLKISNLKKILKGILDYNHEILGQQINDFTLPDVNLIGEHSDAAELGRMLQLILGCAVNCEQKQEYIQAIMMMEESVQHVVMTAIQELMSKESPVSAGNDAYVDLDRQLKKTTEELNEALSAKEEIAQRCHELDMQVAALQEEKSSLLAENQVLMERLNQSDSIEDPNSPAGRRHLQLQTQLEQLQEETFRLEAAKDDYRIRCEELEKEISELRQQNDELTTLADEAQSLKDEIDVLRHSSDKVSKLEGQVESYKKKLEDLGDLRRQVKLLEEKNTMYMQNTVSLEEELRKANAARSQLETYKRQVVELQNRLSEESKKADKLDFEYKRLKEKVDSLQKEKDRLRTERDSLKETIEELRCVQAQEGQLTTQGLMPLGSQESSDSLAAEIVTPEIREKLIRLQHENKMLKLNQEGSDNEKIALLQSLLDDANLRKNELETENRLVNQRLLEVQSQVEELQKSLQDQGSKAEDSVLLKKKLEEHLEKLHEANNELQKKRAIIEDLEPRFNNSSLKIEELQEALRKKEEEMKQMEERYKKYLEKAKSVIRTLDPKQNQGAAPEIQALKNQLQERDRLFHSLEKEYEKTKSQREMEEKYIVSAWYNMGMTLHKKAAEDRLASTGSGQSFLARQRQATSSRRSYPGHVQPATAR
Put plainly: co-IP.

Sequences of proteins named here, by UniProt entry; tags and fusion partners are left off. A change or cut given only in a name is not applied to a line headed by its entry.
UniProt O43896, whole entry: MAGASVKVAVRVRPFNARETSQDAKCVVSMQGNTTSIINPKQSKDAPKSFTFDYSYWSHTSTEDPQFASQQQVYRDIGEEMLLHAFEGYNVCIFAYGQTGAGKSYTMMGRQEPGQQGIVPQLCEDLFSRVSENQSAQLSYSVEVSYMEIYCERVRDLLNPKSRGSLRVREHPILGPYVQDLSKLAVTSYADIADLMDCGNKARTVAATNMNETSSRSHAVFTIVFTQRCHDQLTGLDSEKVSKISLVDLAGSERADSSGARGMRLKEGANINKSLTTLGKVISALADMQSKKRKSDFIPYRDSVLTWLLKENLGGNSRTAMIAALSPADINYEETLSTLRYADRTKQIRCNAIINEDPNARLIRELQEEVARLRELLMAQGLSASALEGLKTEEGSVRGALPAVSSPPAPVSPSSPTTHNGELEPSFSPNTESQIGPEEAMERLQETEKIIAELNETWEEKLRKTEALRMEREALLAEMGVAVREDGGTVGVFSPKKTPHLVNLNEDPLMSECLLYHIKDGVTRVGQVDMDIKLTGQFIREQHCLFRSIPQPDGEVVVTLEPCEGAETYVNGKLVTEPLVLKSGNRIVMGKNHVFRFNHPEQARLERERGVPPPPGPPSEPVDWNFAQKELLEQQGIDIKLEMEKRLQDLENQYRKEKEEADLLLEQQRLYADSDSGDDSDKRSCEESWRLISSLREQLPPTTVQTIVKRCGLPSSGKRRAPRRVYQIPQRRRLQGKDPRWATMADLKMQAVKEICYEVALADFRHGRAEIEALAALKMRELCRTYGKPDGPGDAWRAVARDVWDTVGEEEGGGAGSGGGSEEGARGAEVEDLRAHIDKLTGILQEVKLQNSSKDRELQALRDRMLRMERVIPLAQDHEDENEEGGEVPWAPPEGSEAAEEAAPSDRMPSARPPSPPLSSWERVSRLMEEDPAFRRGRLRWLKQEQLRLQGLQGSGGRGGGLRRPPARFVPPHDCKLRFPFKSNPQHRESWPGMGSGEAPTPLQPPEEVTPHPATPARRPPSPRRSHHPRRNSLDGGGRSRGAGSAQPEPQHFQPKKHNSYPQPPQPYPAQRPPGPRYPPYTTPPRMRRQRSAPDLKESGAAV

Test [2] deals with T2, Halo-HOOK3(1-718)-3XFLAG, full-length HOOK3 (human) (UniProt Q86VS8).
T2 sequence (chain, Alexa-488 via the HaloTag (in the TIRF assays)): T1 sequence
Put plainly: co-IP.

Test [3] has as its target T3, Halo-HOOK3^1-552-3XFLAG (human) (UniProt Q86VS8).
T3 sequence: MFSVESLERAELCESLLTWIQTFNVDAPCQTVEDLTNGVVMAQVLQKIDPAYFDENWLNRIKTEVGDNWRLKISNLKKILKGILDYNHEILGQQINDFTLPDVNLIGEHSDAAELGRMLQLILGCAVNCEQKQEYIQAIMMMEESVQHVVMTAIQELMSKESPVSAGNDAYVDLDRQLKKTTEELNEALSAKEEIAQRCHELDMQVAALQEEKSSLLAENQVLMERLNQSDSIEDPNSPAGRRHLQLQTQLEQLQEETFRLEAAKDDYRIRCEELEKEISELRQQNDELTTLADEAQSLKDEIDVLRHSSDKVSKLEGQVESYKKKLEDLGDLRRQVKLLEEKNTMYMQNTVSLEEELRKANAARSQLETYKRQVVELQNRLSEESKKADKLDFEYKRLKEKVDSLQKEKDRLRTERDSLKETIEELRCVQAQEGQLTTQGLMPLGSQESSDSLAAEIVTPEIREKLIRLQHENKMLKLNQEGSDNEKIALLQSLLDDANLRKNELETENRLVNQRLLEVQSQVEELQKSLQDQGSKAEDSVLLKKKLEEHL
Kind of test: co-IP.

The target of test [4] is T4, Halo-HOOK3^553-718-3XFLAG (human) (UniProt Q86VS8).
T4 sequence: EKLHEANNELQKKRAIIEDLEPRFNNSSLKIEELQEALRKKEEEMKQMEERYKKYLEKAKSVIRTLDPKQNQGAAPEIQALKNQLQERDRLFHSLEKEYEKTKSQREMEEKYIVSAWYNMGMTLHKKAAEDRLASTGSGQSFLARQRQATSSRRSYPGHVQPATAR
Kind of test: co-IP.

The target in test [5] is Halo-HOOK3^HOOK2-3XFLAG chimera (expressed in 293T) (human) (UniProt Q86VS8). Kind of test: co-IP.
The target in test [6] is T5, HaloTag-HOOK2-3XFLAG (human) (UniProt Q96ED9).
T5 sequence: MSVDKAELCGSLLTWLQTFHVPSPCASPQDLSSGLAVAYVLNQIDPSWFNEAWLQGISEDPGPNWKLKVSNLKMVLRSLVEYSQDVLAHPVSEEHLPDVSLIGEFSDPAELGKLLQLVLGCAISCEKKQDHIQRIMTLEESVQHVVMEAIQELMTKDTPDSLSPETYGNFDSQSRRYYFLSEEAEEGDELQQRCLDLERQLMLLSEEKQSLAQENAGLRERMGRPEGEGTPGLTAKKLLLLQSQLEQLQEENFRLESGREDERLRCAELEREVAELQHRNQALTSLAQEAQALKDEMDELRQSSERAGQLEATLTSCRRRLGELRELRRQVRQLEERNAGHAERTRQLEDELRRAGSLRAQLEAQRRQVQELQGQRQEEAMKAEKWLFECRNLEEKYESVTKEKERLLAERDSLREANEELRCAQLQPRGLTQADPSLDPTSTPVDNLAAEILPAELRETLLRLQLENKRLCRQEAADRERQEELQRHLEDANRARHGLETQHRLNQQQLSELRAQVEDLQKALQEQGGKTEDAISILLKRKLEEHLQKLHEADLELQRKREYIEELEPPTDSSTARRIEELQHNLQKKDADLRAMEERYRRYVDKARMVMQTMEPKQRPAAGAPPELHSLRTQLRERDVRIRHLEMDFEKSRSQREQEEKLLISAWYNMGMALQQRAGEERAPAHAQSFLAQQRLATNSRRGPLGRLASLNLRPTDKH
Kind of test: co-IP.

The next test addresses T6, FLAG-HA-HOOK3 (human) (UniProt Q86VS8).
T6 sequence: T1 sequence
Kind of test: co-IP + SEC.

No constants are given. Whether binding was seen depends on the method and setting. Binding seen in cells or lysates may run through a third protein. Some entries that bind do so weakly or less than the wild type. For some of these results: Sequences can lack the tags named with a protein.

The results in this text go back to paper doi:10.1101/508887.

As to “KIF1C (endogenous) (from UniProt O43896 1-1103)”, the binding entry was “binds” in test [1]; “binds” in test [2]; “no binding” in test [3]; “binds” in test [4]; “no binding” in test [5]; “no binding” in test [6]. Moreover, the binding entry with FLAG-HA-HOOK3 (human) is recorded as “binds”.
